# In the supplement of paper PMC8728848:
# This is one part of the list.
# How the values were obtained:
# Assay in all cases: glycan array binding signal (z-score within array); higher = stronger binding
# Settings in all cases: glycan notation: IUPAC condensed, linker removed
# [1] = molecular target: GalNAc(b1-3)Gal(a1-4)Gal(b1-4)GlcNAc
# In short: (§1)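 The binding signal is a Z-score computed within each array and averaged over linkers. Arrays of the same protein sequence at different concentrations or buffers were also averaged together. Data originate from 3228 arrays in the Consortium for Functional Glycomics database, kept only where the protein sequence was available.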
# [2] = molecular target: GalNAc(b1-3)Gal(a1-4)Gal(b1-4)GlcNAc(b1-3)Gal(b1-4)Glc
# In short: as §1
# [3] = molecular target: GalNAc(b1-3)Gal(a1-6)Gal(b1-4)Glc
# In short: as §1
# GalNAc(b1-3)GalNAc = molecular target: GalNAc(b1-3)GalNAc
# In short: as §1
# GalNAc(b1-4)GlcNAc = molecular target: GalNAc(b1-4)GlcNAc
# In short: as §1
# [4] = molecular target: GalNAc(b1-4)GlcNAc(b1-2)Man(a1-3)[GalNAc(b1-4)GlcNAc(b1-2)Man(a1-6)]Man(b1-4)GlcNAc(b1-4)GlcNAc
# In short: as §1
# Glc(a1-4)Glc = molecular target: Glc(a1-4)Glc
# In short: as §1
# Glc(a1-6)Glc(a1-6)Glc = molecular target: Glc(a1-6)Glc(a1-6)Glc
# In short: as §1
# Glc(b1-4)Glc = molecular target: Glc(b1-4)Glc
# In short: as §1
# Glc(b1-6)Glc = molecular target: Glc(b1-6)Glc
# In short: as §1
# GlcA(b1-3)Gal = molecular target: GlcA(b1-3)Gal
# In short: as §1
# GlcA(b1-3)GlcNAc = molecular target: GlcA(b1-3)GlcNAc
# In short: as §1
# GlcA(b1-6)Gal = molecular target: GlcA(b1-6)Gal
# In short: as §1
# [5] = molecular target: GlcNAc(a1-3)Gal(b1-4)GlcNAc
# In short: as §1
# [6] = molecular target: GlcNAc(a1-4)Gal(b1-3)GlcNAc
# In short: as §1
# [7] = molecular target: GlcNAc(a1-4)Gal(b1-4)GalNAc
# In short: as §1
# [8] = molecular target: GlcNAc(a1-4)Gal(b1-4)GlcNAc
# In short: as §1
# [9] = molecular target: GlcNAc(a1-4)Gal(b1-4)GlcNAc(b1-3)Gal(b1-4)Glc
# In short: as §1
# [10] = molecular target: GlcNAc(a1-4)Gal(b1-4)GlcNAc(b1-3)Gal(b1-4)GlcNAc
# In short: as §1
# [11] = molecular target: GlcNAc(a1-4)Gal(b1-4)GlcNAc(b1-3)Gal(b1-4)GlcNAc(b1-3)Gal(b1-4)GlcNAc
# In short: as §1
# [12] = molecular target: GlcNAc(a1-4)Gal(b1-4)GlcNAc(b1-3)Gal(b1-4)[Fuc(a1-3)]GlcNAc(b1-3)Gal(b1-4)[Fuc(a1-3)]GlcNAc
# In short: as §1
# [13] = molecular target: GlcNAc(a1-6)Gal(b1-4)GlcNAc
# In short: as §1
# [14] = molecular target: GlcNAc(b1-2)Gal(b1-3)GalNAc
# In short: as §1
# [15] = molecular target: GlcNAc(b1-2)Man(a1-3)[GlcNAc(b1-2)Man(a1-6)]Man(b1-4)GlcNAc(b1-4)GlcNAc
# In short: as §1
# [16] = molecular target: GlcNAc(b1-2)Man(a1-3)[GlcNAc(b1-2)Man(a1-6)]Man(b1-4)GlcNAc(b1-4)[Fuc(a1-6)]GlcNAc
# In short: as §1
# [17] = molecular target: GlcNAc(b1-2)[GlcNAc(b1-4)]Man(a1-3)[GlcNAc(b1-2)Man(a1-6)]Man(b1-4)GlcNAc(b1-4)GlcNAc
# In short: as §1
# GlcNAc(b1-3)Gal = molecular target: GlcNAc(b1-3)Gal
# In short: as §1
# [18] = molecular target: GlcNAc(b1-3)Gal(b1-3)GalNAc
# In short: as §1
# GlcNAc(b1-3)Gal(b1-4)Glc = molecular target: GlcNAc(b1-3)Gal(b1-4)Glc
# In short: as §1
# [19] = molecular target: GlcNAc(b1-3)Gal(b1-4)GlcNAc
# In short: as §1
# [20] = molecular target: GlcNAc(b1-3)Gal(b1-4)GlcNAc(b1-3)Gal(b1-4)GlcNAc
# In short: as §1
# GlcNAc(b1-3)GalNAc = molecular target: GlcNAc(b1-3)GalNAc
# In short: as §1
# GlcNAc(b1-3)Man = molecular target: GlcNAc(b1-3)Man
# In short: as §1
# [21] = molecular target: GlcNAc(b1-3)[GlcNAc(b1-4)][GlcNAc(b1-6)]GlcNAc
# In short: as §1
# [22] = molecular target: GlcNAc(b1-3)[GlcNAc(b1-6)]Gal(b1-4)GlcNAc
# In short: as §1
# [23] = molecular target: GlcNAc(b1-3)[GlcNAc(b1-6)]GalNAc
# In short: as §1
# [24] = molecular target: GlcNAc(b1-4)Gal(b1-4)GlcNAc
# In short: as §1
# GlcNAc(b1-4)GlcNAc = molecular target: GlcNAc(b1-4)GlcNAc
# In short: as §1
# [25] = molecular target: GlcNAc(b1-4)GlcNAc(b1-4)GlcNAc
# In short: as §1
# [26] = molecular target: GlcNAc(b1-4)GlcNAc(b1-4)GlcNAc(b1-4)GlcNAc(b1-4)GlcNAc
# In short: as §1
# [27] = molecular target: GlcNAc(b1-4)GlcNAc(b1-4)GlcNAc(b1-4)GlcNAc(b1-4)GlcNAc(b1-4)GlcNAc
# In short: as §1
# [28] = molecular target: GlcNAc(b1-4)[GlcNAc(b1-6)]GalNAc
# In short: as §1
# [29] = molecular target: GlcNAc(b1-6)Gal(b1-4)GlcNAc
# In short: as §1
# GlcNAc(b1-6)GalNAc = molecular target: GlcNAc(b1-6)GalNAc
# In short: as §1
# GlcNAc3Prop(b1-4)GlcNAc = molecular target: GlcNAc3Prop(b1-4)GlcNAc
# In short: as §1
binder,measurement,setting,value
"CLEC9a (Mus musculus), Q8BRU4 (protein) MHAEEIYTSLQWDIPTSEASQKCQSPSKCSGAWCVVTMISCVVCMGLLATSIFLGIKFFQVSSLVLEQQERLIQQDTALVNLTQWQRKYTLEYCQALLQRSLHSGSDCSPCPHNWIQNGKSCYYVFERWEMWNISKKSCLKEGASLFQIDSKEEMEFISSIGKLKGGNKYWVGVFQDGISGSWFWEDGSSPLSDLLPAERQRSAGQICGYLKDSTLISDKCDSWKYFICEKKAFGSCI",glycan array binding signal (z-score),[1],-0.473
same,glycan array binding signal (z-score),[2],-0.553
same,glycan array binding signal (z-score),[3],-0.386
same,glycan array binding signal (z-score),GalNAc(b1-3)GalNAc,-0.705
same,glycan array binding signal (z-score),GalNAc(b1-4)GlcNAc,0.171
same,glycan array binding signal (z-score),[4],-1.69
same,glycan array binding signal (z-score),Glc(a1-4)Glc,-0.603
same,glycan array binding signal (z-score),Glc(a1-6)Glc(a1-6)Glc,-0.171
same,glycan array binding signal (z-score),Glc(b1-4)Glc,-1.28
same,glycan array binding signal (z-score),Glc(b1-6)Glc,0.001
same,glycan array binding signal (z-score),GlcA(b1-3)Gal,-1.69
same,glycan array binding signal (z-score),GlcA(b1-3)GlcNAc,-0.226
same,glycan array binding signal (z-score),GlcA(b1-6)Gal,-1.16
same,glycan array binding signal (z-score),[5],-1.28
same,glycan array binding signal (z-score),[6],-0.096
same,glycan array binding signal (z-score),[7],0.796
same,glycan array binding signal (z-score),[8],1.29
same,glycan array binding signal (z-score),[9],-1.68
same,glycan array binding signal (z-score),[10],-1.36
same,glycan array binding signal (z-score),[11],-0.359
same,glycan array binding signal (z-score),[12],0.915
same,glycan array binding signal (z-score),[13],-0.784
same,glycan array binding signal (z-score),[14],-1.55
same,glycan array binding signal (z-score),[15],-0.834
same,glycan array binding signal (z-score),[16],0.415
same,glycan array binding signal (z-score),[17],4.01
same,glycan array binding signal (z-score),GlcNAc(b1-3)Gal,-0.21
same,glycan array binding signal (z-score),[18],0.009
same,glycan array binding signal (z-score),GlcNAc(b1-3)Gal(b1-4)Glc,-0.669
same,glycan array binding signal (z-score),[19],-1.06
same,glycan array binding signal (z-score),[20],-0.816
same,glycan array binding signal (z-score),GlcNAc(b1-3)GalNAc,-0.548
same,glycan array binding signal (z-score),GlcNAc(b1-3)Man,-0.506
same,glycan array binding signal (z-score),[21],-0.245
same,glycan array binding signal (z-score),[22],-1.89
same,glycan array binding signal (z-score),[23],-0.652
same,glycan array binding signal (z-score),[24],0.714
same,glycan array binding signal (z-score),GlcNAc(b1-4)GlcNAc,0.509
same,glycan array binding signal (z-score),[25],2.95
same,glycan array binding signal (z-score),[26],-1.04
same,glycan array binding signal (z-score),[27],0.022
same,glycan array binding signal (z-score),[28],-1
same,glycan array binding signal (z-score),[29],-2.84
same,glycan array binding signal (z-score),GlcNAc(b1-6)GalNAc,0.178
same,glycan array binding signal (z-score),GlcNAc3Prop(b1-4)GlcNAc,-1.05

# A portion of the results above:
binder,measurement,setting,value
"CLEC9a (Mus musculus), Q8BRU4 (protein) MHAEEIYTSLQWDIPTSEASQKCQSPSKCSGAWCVVTMISCVVCMGLLATSIFLGIKFFQVSSLVLEQQERLIQQDTALVNLTQWQRKYTLEYCQALLQRSLHSGSDCSPCPHNWIQNGKSCYYVFERWEMWNISKKSCLKEGASLFQIDSKEEMEFISSIGKLKGGNKYWVGVFQDGISGSWFWEDGSSPLSDLLPAERQRSAGQICGYLKDSTLISDKCDSWKYFICEKKAFGSCI",glycan array binding signal (z-score),[20],-0.816
same,glycan array binding signal (z-score),GlcNAc(b1-3)GalNAc,-0.548
same,glycan array binding signal (z-score),GlcNAc(b1-3)Man,-0.506
